Results taken from PubChem BioAssay AID540276 (National Center for Advancing Translational Sciences (NCATS), 2011).
The campaign covered roughly 300,000 compounds. About 5,400 (1.8%) were called active. The shares of active, inactive and inconclusive entries below differ from those in the screen. The call rests on the fitted dose curve; tested in HEK293 cells. A potency beside an inconclusive call is a rough fit, not a confirmed value.

Experiment: qHTS for inhibitors of binding or entry into cells for Marburg Virus
Settings: Marburg virus pseudotyped entry inhibition, cell reporter; activity change, negative = inhibition: at 37.8 µM (top of the series) unless noted
On the % scale 0 is the no-effect control and ±100 the full control effect; potency means the concentration at half of the fitted maximal effect.

Compound | Potency | activity change, negative = inhibition
O=C(NCc1ccccc1)NC1(C(=O)Nc2ccc3c(c2)OCCO3)CCCCC1 | inconclusive: 25.9 µM [activator, single point] | 
COc1ccc(NC(=O)/C=C/c2ccccc2)c([N+](=O)[O-])c1 | inconclusive: 0.631 µM [activator, partial curve, poor fit] | 
Cc1ccc(S(=O)(=O)N2c3ccccc3OCC2c2ccccc2)cc1 (centres undefined) | inconclusive: 32.6 µM [inhibitor, single point] | 
O=C(N/N=C\c1ccccc1)c1sccc1-n1cccc1 |  | inactive: 29.4%
Cn1c(Cc2cccs2)nnc1SCC(=O)Nc1ccccc1F |  | inactive: 0.101%
COc1ccc(CC(=O)Nc2ccc3nc(SC)sc3c2)cc1OC |  | inactive: -13.2% [at 46.1 µM]
CC(=O)OCC(=O)C1CCC2C3CCC4=CC(=O)C=CC4(C)C3CCC12C (centres undefined) |  | inactive: 3.56%
O=C(Nc1cccc(O)c1)c1ccc(NC(=O)c2cccs2)cc1 | inconclusive: 28.2 µM [inhibitor, single point] | 
CCC1([N+](=O)[O-])COC(c2ccc(C(C)C)cc2)OC1 (centres undefined) | inconclusive: 1 µM [activator, full curve, poor fit] | 
CN1c2ccc([N+](=O)[O-])cc2CC2(C(=O)NC(=O)N(c3ccccc3)C2=O)C1c1ccccc1 (centres undefined) | inconclusive: 11.2 µM [inhibitor, single point] | 
COc1ccc(C2CC(c3ccc(OC)cc3OC(C)=O)=NN2C(=O)c2ccccc2)cc1 (centres undefined) | inconclusive: 35.5 µM [inhibitor, single point] | 
CCOC(=O)c1c(C)n(OCc2ccccc2)c2ccc3c(no[n+]3[O-])c12 | inconclusive: 6.51 µM [inhibitor, full curve, poor fit] | 
CCOC(=O)c1ccc(NC(=O)CCc2c(C)nc3c(c(C)nn3C(C)(C)C)c2C)cc1 |  | inactive: -24.5% [at 46.1 µM]
CCN(c1ccccc1)S(=O)(=O)c1ccc(C(=O)N(CCCN(C)C)c2nc3c(C)cccc3s2)cc1 | inconclusive: 35.5 µM [inhibitor, single point] | 
Cc1nn(CC(=O)N2CCN(c3cccc(Cl)c3)CC2)c(=O)c2c1sc1ccccc12 |  | inactive: -7.51% [at 46.1 µM]
CCc1ccc(CN2CCN(Cc3cc(Br)ccc3O)CC2)cc1 | inconclusive: 15.8 µM [inhibitor, single point] | 
CC(C)(C)CC(C)(C)NCC(O)COc1ccc2c(c1)CCC2 (centres undefined) | active: 7.08 µM | 
CC(C)C(=O)NC(=S)Nc1ccc(S(=O)(=O)NC(C)(C)C)cc1 | inconclusive: 35.5 µM [activator, single point] | 
Cc1ccc(NC(=O)c2ccccc2OCc2ccc([N+](=O)[O-])cc2)nc1 | inconclusive: 6.31 µM [inhibitor, single point] | 
CCOC(=O)c1sc2nc3n(c(=O)c2c1C)CCCCC3 | inconclusive: 5.62 µM [activator, single point] | 
CCOC(=O)c1c(CN(C)C)n(-c2ccccc2)c2cc(Br)c(O)cc12 | inconclusive: 35.5 µM [inhibitor, single point] | 
CCCN(CCC)S(=O)(=O)c1cc(Br)cc2c1N(C(=O)CC)CC2 | inconclusive: 14.1 µM [inhibitor, single point] | 

Given as a markdown table: 3 of the compounds above

| Compound | Potency | activity change, negative = inhibition |
| --- | --- | --- |
| COc1ccc(CC(=O)Nc2ccc3nc(SC)sc3c2)cc1OC |  | inactive: -13.2% [at 46.1 µM] |
| CCOC(=O)c1c(C)n(OCc2ccccc2)c2ccc3c(no[n+]3[O-])c12 | inconclusive: 6.51 µM [inhibitor, full curve, poor fit] |  |
| CCCN(CCC)S(=O)(=O)c1cc(Br)cc2c1N(C(=O)CC)CC2 | inconclusive: 14.1 µM [inhibitor, single point] |  |

Remaining list, next part

Compound | Potency | activity change, negative = inhibition
CC1CCN(CCCNC(=O)c2ccc3c(=O)n(CCc4ccccc4)c(=O)[nH]c3c2)CC1 | inconclusive: 25.9 µM [inhibitor, single point] | 
Fc1ccc(CSc2ncnc3c2oc2ccccc23)cc1 | inconclusive: 0.13 µM [activator, single point] | 
COc1ccc(CCNc2nc3ccccc3c3nc(-c4cccc(C)c4)nn23)cc1OC |  | inactive: 13.7% [at 46.1 µM]
Cc1ccc(CCNC(=O)c2cccc(Nc3nc4ccccc4nc3-n3nc(C)cc3C)c2)cc1 |  | inactive: 4.76% [at 46.1 µM]
CCOc1ccc(CN2CCNC(=O)C2CC(=O)NCc2csc(C)n2)cc1 (centres undefined) | inconclusive: 11.2 µM [activator, partial curve, poor fit] | 
CCOc1cc(CNc2cccc3[nH]c(C)nc23)ccc1OC | inconclusive: 35.5 µM [inhibitor, single point] | 
O=C(CNC(=S)N(CCCN1CCOCC1)Cc1cccs1)NCCN1CCOCC1 | inconclusive: 14.1 µM [inhibitor, single point] | 
CN(CC(=O)N1CCN(Cc2ccccc2)CC1)S(=O)(=O)c1ccc(F)cc1 |  | inactive: 5.27%
CCOC(=O)c1c(NC(=O)C(=O)N/N=C/c2ccccc2O)sc2c1CCCCC2 | inconclusive: 35.5 µM [inhibitor, single point] | 
O=C(N/N=C/c1c[nH]c2ccccc12)c1[nH]c2ccc(Br)cc2c1-c1ccccc1 | inconclusive: 7.3 µM [inhibitor, partial curve, poor fit] | 
Cc1nn(Cc2ccc(Cl)c(Cl)c2)c(C)c1NC(=O)c1cc(-c2ccco2)on1 | inconclusive: 20.6 µM [inhibitor, partial curve, poor fit] | 
O=C(NC(Cc1ccccc1)C(=O)O)/C(=C\c1ccco1)NC(=O)c1ccccc1Br (centres undefined) | inconclusive: 3.16 µM [inhibitor, partial curve] | 
Cc1ccc(NC(=O)CSCc2cnn(-c3ccccc3)c2-n2cccc2)c(Cl)c1 |  | inactive: -0.538% [at 46.1 µM]
O=C(NCCCO)/C(=C\C=C\c1ccccc1)NC(=O)c1ccccc1Cl | inconclusive: 0.0891 µM [inhibitor, full curve, poor fit] | 
Cc1nc2ccc(NC(=O)CS(=O)(=O)c3ccccc3)cc2s1 | inconclusive: 6.31 µM [activator, full curve] | 
Cc1ccccc1-c1nc(CN2CCC(C(=O)NCc3cccs3)CC2)c(C)o1 | inconclusive: 35.5 µM [inhibitor, single point] | 
Cc1[nH]n2c(=O)cc(-c3ccc([N+](=O)[O-])cc3)nc2c1-c1ccccc1 | inconclusive: 22.4 µM [inhibitor, single point] | 
N#Cc1sc2nc(-c3ccccc3)cc(C(F)(F)F)c2c1N | inconclusive: 2 µM [activator, single point] | 
O=C(C1CCN(S(=O)(=O)c2cccc3nsnc23)CC1)N1CC=C(c2ccccc2)CC1 | inconclusive: 35.5 µM [inhibitor, single point] | 
Cc1cc(=O)[nH]c(N/N=C/c2c(C)nn(-c3ccccc3)c2Cl)n1 | inconclusive: 1 µM [inhibitor, partial curve, poor fit] | 
COc1cccc(NC(=O)C(c2ccccc2)N2CCN(c3ccccn3)CC2)c1 (centres undefined) | inconclusive: 7.94 µM [inhibitor, partial curve, poor fit] | 
CSc1ccc(-c2nc3cnccn3c2Nc2ccc3c(c2)OCO3)cc1 | inconclusive: 25.1 µM [inhibitor, single point] | 

Compound | Potency | activity change, negative = inhibition
CC1(C)CC(O)C(C)(C)N1O (centres undefined) |  | inactive: -0.511%
O=C(c1cccc(NS(=O)(=O)c2ccc(F)cc2)c1)N1CCN(c2ccccc2)CC1 | inconclusive: 2.82 µM [inhibitor, partial curve, poor fit] | 
O=C(c1ccc2c(c1)OCO2)N1CCCN(C(=O)c2ccc3c(c2)OCO3)CC1 |  | inactive: 9.27%
FC(F)(F)c1cnc(N2CCC(=NOCc3ccc(Cl)cc3)CC2)c(Cl)c1 | inconclusive: 20.6 µM [inhibitor, partial curve, poor fit] | 
CCC(=O)N1c2ccc(S(=O)(=O)N3CCN(c4cc(C)ccc4C)CC3)cc2CC1C (centres undefined) | inconclusive: 31.6 µM [inhibitor, single point] | 
O=C(COC(=O)c1cccs1)Nc1ccccc1 |  | inactive: 1.36%
CCn1c(C)nc2cc(-c3nc4n(n3)Cc3ccccc3-4)ccc21 | inconclusive: 0.316 µM [inhibitor, full curve, poor fit] | 
CCOC(=O)C(CCCCC(NC(C)=O)(C(=O)OCC)C(=O)OCC)(NC(C)=O)C(=O)OCC |  | inactive: 22.3%
Cn1c(=O)n(CC(=O)NC2CCCCC2)c(=O)c2ccccc21 | inconclusive: 0.501 µM [activator, partial curve, poor fit] | 
c1coc(CNc2ncnc3[nH]ncc23)c1 | inconclusive: 4.47 µM [activator, full curve] | 
CCCCn1c(N)c(N(CCOC)C(=O)CCNC(=O)c2ccc(Br)cc2)c(=O)[nH]c1=O | inconclusive: 10 µM [activator, partial curve] | 
CCCCCOC(=O)c1[nH]c2c(c1C)C(=O)CC(c1ccco1)C2 (centres undefined) | active: 0.461 µM | 
Cc1ccc(C(=O)Nc2nc3c(s2)CCCC3)o1 | inconclusive: 29.1 µM [inhibitor, single point] | 
COc1ccc(OCCOc2ccccc2[N+](=O)[O-])cc1 | inconclusive: 3.26 µM [activator, single point] | 
CC(C)(C)C(=O)Nc1ccc(C(=O)N/N=C/c2ccccc2OC(=O)c2ccccc2)cc1 | inconclusive: 11.2 µM [inhibitor, partial curve, poor fit] | 
CC1CCCN(c2ccc(C(=O)N3CCC4(CC3)OCCO4)cc2[N+](=O)[O-])C1 (centres undefined) | inconclusive: 1.58 µM [inhibitor, partial curve, poor fit] | 
O=C(NCCCc1ccccc1)c1cccc(NC(=O)c2ccccc2)c1 | inconclusive: 0.0705 µM [inhibitor, full curve, poor fit] | 
CC1(C)Cc2c(sc(NC(=O)C(=O)N3CCCC3)c2C(N)=O)CO1 | inconclusive: 2.82 µM [activator, full curve] | 
O=C(c1ccc(-n2cnnn2)cc1)N(C1CCCCC1)C1CCCCC1 | inconclusive: 1.26 µM [inhibitor, partial curve, poor fit] | 
Cc1ccc2cc(CN(CCN(C)C)C(=S)Nc3ccccc3)c(=O)[nH]c2c1C | inconclusive: 12.6 µM [inhibitor, partial curve, poor fit] | 

Two neighbouring records out of the list so far:
Compound | Potency | activity change, negative = inhibition
O=C(C1CCN(S(=O)(=O)c2cccc3nsnc23)CC1)N1CC=C(c2ccccc2)CC1 | inconclusive: 35.5 µM [inhibitor, single point] | 
Cc1cc(=O)[nH]c(N/N=C/c2c(C)nn(-c3ccccc3)c2Cl)n1 | inconclusive: 1 µM [inhibitor, partial curve, poor fit] | 
